From PMC4358365, “Conserved mechanisms of microtubule-stimulated ADP release, ATP binding, and force generation in transport kinesins” (eLife, 2014)
No constants are given. Whether binding was seen depends on the method and setting. Binding can be weak; no strength is given.

How the values were obtained:
[1] = biological target: paclitaxel-stabilised microtubule polymerised from bovine αβ-tubulin (bovine); assay: cryo-EM structure; no nucleotide (NN) state: 5 μM MT in BrB20, then motor domain in BrB20 with apyrase (10 units/ml), Kin3 5 μM, Kin1 100 μM; Vitrobot 25°C, 100% humidity; 13 protofilament MTs; both purified
[2] = biological target: β-tubulin (bovine, within the paclitaxel-stabilised microtubule) (bovine); assay: as above
[3] = biological target: α-tubulin (bovine, within the paclitaxel-stabilised microtubule) (bovine); assay: as above
[4] = biological target: paclitaxel-stabilised microtubule polymerised from bovine αβ-tubulin (bovine); assay: cryo-EM structure; Mg-AMPPNP state: 5 μM MT in BrB20, then motor domain in BrB20 with 2 mM AMPPNP, Kin3 5 μM, Kin1 50 μM; Vitrobot 25°C, 100% humidity; 13 protofilament MTs; both purified
[5] = biological target: β-tubulin (bovine, within the paclitaxel-stabilised microtubule) (bovine); assay: as above
[6] = biological target: α-tubulin (bovine, within the paclitaxel-stabilised microtubule) (bovine); assay: as above
[7] = biological target: paclitaxel-stabilised microtubule polymerised from bovine αβ-tubulin (bovine); assay: cryo-EM structure; Mg-ADPAlFx state: 5 μM MT in BrB20, then motor domain in BrB20 with 2 mM ADP + AlF4, Kin3 5 μM, Kin1 50 μM; Vitrobot 25°C, 100% humidity; 13 protofilament MTs; both purified
[8] = biological target: β-tubulin (bovine, within the paclitaxel-stabilised microtubule) (bovine); assay: as above
[9] = biological target: α-tubulin (bovine, within the paclitaxel-stabilised microtubule) (bovine); assay: as above
[10] = biological target: paclitaxel-stabilised microtubule polymerised from bovine αβ-tubulin (bovine); assay: cryo-EM structure; Mg-ADP state: 5 μM MT in BrB20, then Kin3 10 μM in BrB20 with 2 mM ADP, applied in turn to the grid; Vitrobot 25°C, 100% humidity; 13 protofilament MTs; both purified
[11] = biological target: β-tubulin (bovine, within the paclitaxel-stabilised microtubule) (bovine); assay: as above
[12] = biological target: α-tubulin (bovine, within the paclitaxel-stabilised microtubule) (bovine); assay: as above

Measured: binding

B1: human kinesin-3 (Kin3) motor domain construct (Kif1A, residues 1–361) (domain or fragment, UniProt Q12756 1-361)
chain: MAGASVKVAVRVRPFNSREMSRDSKCIIQMSGSTTTIVNPKQPKETPKSFSFDYSYWSHTSPEDINYASQKQVYRDIGEEMLQHAFEGYNVCIFAYGQTGAGKSYTMMGKQEKDQQGIIPQLCEDLFSRINDTTNDNMSYSVEVSYMEIYCERVRDLLNPKNKGNLRVREHPLLGPYVEDLSKLAVTSYNDIQDLMDSGNKARTVAATNMNETSSRSHAVFNIIFTQKRHDAETNITTEKVSKISLVDLAGSERADSTGAKGTRLKEGANINKSLTTLGKVISALAEMDSGPNKNKKKKKTDFIPYRDSVLTWLLRENLGGNSRTAMVAALSPADINYDETLSTLRYADRAKQIRCNAVIN
binds: all assays above
